# Library screen at single concentrations

The chains behind the UniProt entries cited, without tags or fusion partners.
UniProt I6X8D2, whole entry: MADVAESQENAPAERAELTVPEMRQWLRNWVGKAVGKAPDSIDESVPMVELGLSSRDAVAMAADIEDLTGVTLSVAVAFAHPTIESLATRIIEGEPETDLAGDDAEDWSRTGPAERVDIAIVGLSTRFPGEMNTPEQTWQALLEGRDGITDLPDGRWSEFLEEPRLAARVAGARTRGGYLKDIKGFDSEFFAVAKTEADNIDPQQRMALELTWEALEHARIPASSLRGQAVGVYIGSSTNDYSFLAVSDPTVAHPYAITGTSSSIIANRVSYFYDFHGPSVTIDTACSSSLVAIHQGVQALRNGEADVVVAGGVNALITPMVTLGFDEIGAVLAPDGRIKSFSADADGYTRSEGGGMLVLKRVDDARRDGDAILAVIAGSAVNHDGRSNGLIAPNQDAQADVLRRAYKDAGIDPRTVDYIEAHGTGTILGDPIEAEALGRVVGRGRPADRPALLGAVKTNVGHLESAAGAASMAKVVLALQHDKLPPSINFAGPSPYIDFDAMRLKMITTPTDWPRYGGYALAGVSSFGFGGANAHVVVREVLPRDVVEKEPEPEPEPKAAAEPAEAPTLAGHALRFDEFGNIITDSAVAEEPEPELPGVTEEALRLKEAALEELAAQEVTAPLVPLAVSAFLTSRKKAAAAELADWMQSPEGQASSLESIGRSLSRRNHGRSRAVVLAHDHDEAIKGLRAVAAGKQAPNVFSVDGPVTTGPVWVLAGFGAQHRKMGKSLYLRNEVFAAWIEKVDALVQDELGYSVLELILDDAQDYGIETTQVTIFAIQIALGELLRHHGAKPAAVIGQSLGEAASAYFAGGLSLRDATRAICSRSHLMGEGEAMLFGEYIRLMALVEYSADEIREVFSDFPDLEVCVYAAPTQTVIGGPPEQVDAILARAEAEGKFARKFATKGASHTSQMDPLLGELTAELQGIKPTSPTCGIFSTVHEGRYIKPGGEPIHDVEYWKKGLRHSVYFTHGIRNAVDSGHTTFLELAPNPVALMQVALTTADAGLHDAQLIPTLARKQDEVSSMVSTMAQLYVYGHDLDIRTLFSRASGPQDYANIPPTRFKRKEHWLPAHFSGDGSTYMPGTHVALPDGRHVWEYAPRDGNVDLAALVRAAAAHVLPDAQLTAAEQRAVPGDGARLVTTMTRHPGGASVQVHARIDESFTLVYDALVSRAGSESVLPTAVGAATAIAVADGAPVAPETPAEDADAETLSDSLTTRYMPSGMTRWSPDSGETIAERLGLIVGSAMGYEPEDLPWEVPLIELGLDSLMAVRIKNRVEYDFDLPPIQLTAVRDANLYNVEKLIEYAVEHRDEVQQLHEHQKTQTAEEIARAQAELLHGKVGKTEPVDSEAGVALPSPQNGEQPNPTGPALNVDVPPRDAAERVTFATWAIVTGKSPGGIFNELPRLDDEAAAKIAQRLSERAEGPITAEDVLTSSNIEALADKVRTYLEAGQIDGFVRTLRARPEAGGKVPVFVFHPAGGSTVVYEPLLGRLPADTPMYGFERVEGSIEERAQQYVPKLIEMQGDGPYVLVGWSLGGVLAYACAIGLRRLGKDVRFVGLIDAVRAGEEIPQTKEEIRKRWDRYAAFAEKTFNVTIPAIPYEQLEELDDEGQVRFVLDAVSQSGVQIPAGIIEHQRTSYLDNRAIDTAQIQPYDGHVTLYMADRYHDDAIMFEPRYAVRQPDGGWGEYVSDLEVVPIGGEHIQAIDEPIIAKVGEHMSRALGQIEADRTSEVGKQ

The values are deposited in ChEMBL (CHEMBL3988442, “University of Dundee, Small-Polar-MMV Screening Library” (2021)).

Results are given as percent effect. How 0% and 100% were set is not recorded. Most values in the screen are low, and negative values occur. This is an unselected part of the compounds tested.

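Polyketide synthase Pks13, Mycobacterium tuberculosis (UniProt I6X8D2). Enzyme assay of the thioesterase domain of polyketide synthase 13; the read-out is not stated. Compounds at 30 µM. Higher reads as stronger inhibition (inferred from which compounds were picked for retests). Size under these conditions: about 67,000 compounds, about 300 of them at 50% or above in at least one test.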

{"compound": "Cc1nn(C)c(C)c1C1CCCN1CC(=O)Nc1ccncc1", "stereo": "stereo unspecified", "effect": -7.042}
{"compound": "Cc1ccc2cc(CN(C)Cc3ccncn3)c(=O)[nH]c2c1", "effect": 8.508}
{"compound": "CCn1cc(CN(C)Cc2cnn(-c3ccc(F)cc3)c2)cn1", "effect": -34.1}
{"compound": "CC(NC(=O)c1cccs1)C(=O)NCc1ccccc1CN1CCCC1", "stereo": "stereo unspecified", "effect": -8.519}
{"compound": "COc1ccc(S(=O)(=O)N[C@H]2CN(C(C)=O)C[C@@H]2C(C)C)cc1F", "effect": -15.51}
{"compound": "O=C(Cn1cccnc1=O)NCc1cccnc1OCC(F)(F)F", "effect": -3.078}
{"compound": "COC(=O)C(O)C1CCN(CCc2ccccn2)CC1", "stereo": "stereo unspecified", "effect": 10.93}
{"compound": "CC(C)NC(=O)[C@@H]1C[C@H](N)CN1C(=O)c1cc2c([nH]c1=O)CCCC2", "effect": -2.265}
{"compound": "CNC(=O)CCc1cc(C2CCCN2S(C)(=O)=O)nc(C)n1", "stereo": "stereo unspecified", "effect": -0.4989}
{"compound": "O=C(Nc1ccc(F)cc1)N1C[C@H]2C[C@H](C(=O)N3CCCC3)[C@@H](C1)O2", "effect": 3.06}
{"compound": "CO[C@H]1C[C@@H](O)C12CCN(C(=O)CCCOc1ccccc1)CC2", "effect": -6.168}
{"compound": "N#Cc1ccc(N2CCN(C(=O)c3cc(C4CC4)[nH]n3)CC2)c(F)c1", "effect": -6.756}
{"compound": "CCCN1CCC(c2cc(CCOc3ccc(C(F)(F)F)cc3)[nH]n2)C1", "stereo": "stereo unspecified", "effect": 13.62}
{"compound": "Cc1nccc([C@@H]2C[C@@H]3CCN(S(=O)(=O)C4CC4)C[C@H]3O2)n1", "effect": -9.242}
{"compound": "CC(=O)N1CCN(C(=O)c2ccc(-c3cccc(C)c3)[nH]c2=O)CC1", "effect": 30.14}
{"compound": "Cc1noc(CN2CCN(Cc3cccs3)CC2)n1", "effect": 2.551}
{"compound": "CCn1ncc2c1CCCC2NCc1ccccc1N1CCOCC1", "stereo": "stereo unspecified", "effect": -7.586}
{"compound": "COCC(=O)Nc1ccc([C@@H](O)[C@H]2COCC(=O)N2C)cc1", "effect": -21.27}
{"compound": "CC1CCCN(Cc2cccc(C(=O)Nc3nccs3)c2)C1", "stereo": "stereo unspecified", "effect": -34.78}
{"compound": "COc1cccc(CC2CCCN2Cc2nccn2C)c1", "stereo": "stereo unspecified", "effect": -18.01}
{"compound": "COCCn1cnc2ccc(NC(=O)CCCn3cccn3)cc2c1=O", "effect": -35.56}
{"compound": "CC(C)N(C)Cc1cnc2n1CCN(Cc1ccco1)C2", "effect": -3.232}
{"compound": "CC(=O)NCC(=O)Nc1cc(C)n(-c2ccc(Cl)cc2Cl)n1", "effect": -17.43}
{"compound": "CN(C)C1CCN(C(=O)NCc2ccccc2Cn2cncn2)CC1", "effect": -7.15}
{"compound": "Cc1nc2c(c(NC3CCN(Cc4ccccc4)CC3)n1)CCNCC2", "effect": -34.89}
{"compound": "c1coc(CN2CCC3(CCOCC3COCC3CC3)CC2)c1", "stereo": "stereo unspecified", "effect": -33.23}
{"compound": "CCC(CC)(CNC(=O)OC(C)(C)C)NC(=O)c1cnccn1", "effect": -23.15}
{"compound": "CN1CCCN(C(=O)c2nc3c(o2)CN(S(C)(=O)=O)C3)CC1", "effect": -2.824}
{"compound": "CCNC(=O)[C@@H]1C[C@@H](N)CN1C(=O)c1cc2ccccc2[nH]1", "effect": -4.601}
{"compound": "CC(=O)N1CCC(Cc2ccc(-c3ccnn3C)nc2)CC1", "effect": -1.37}
{"compound": "O=C(CN1CCCC1Cn1cncn1)Nc1nccs1", "stereo": "stereo unspecified", "effect": -6.135}
{"compound": "O=C(CCC1CCCO1)N1CCc2nc(-c3cnccn3)nc(O)c2C1", "stereo": "stereo unspecified", "effect": -0.9578}
{"compound": "Cc1cc(N(C)Cc2cc(C(C)(C)C)n[nH]2)nc(-c2cccnc2)n1", "effect": -30.34}
{"compound": "CC(C)NC(=O)N1CCC2(CC1)CCn1c(C3CC3)cnc12", "effect": 22.3}
{"compound": "CCCn1[nH]c(CNc2cccc(Cl)c2)nc1=O", "effect": 5.786}
{"compound": "O=C(NCc1ccco1)c1cc(N2CC[C@@H](O)C2)ccn1", "effect": -39.33}
{"compound": "O=S1(=O)CCN2C(=N1)Oc1ccc(S(=O)(=O)N3CCCC3)cc12", "effect": 2.407}
{"compound": "O=C(O)c1c(-c2ccncc2)ncc2c1CCN(Cc1ccco1)C2", "effect": 10.14}
{"compound": "CCCNC(=O)c1nn(CC)cc1Cl", "effect": -17.78}
{"compound": "O=C(c1ccc2occc2c1)N1CCC(C(=O)O)(n2cccn2)CC1", "effect": -1.801}
{"compound": "O=C(CCCOc1ccccc1Cl)N1CCCC(n2cncn2)C1", "stereo": "stereo unspecified", "effect": -3.65}
{"compound": "COc1ccc(CNC(=O)c2ccc(Br)cn2)cc1", "effect": -3.311}
{"compound": "CCn1nc(C)c2c1cnn2CCNS(=O)(=O)c1cccs1", "effect": 22.91}
{"compound": "Cc1nn(C)cc1CN(C)C(=O)c1ccccn1", "effect": -9.137}
{"compound": "O=C(O)c1cccc(CN2CCCC(Cc3ccn[nH]3)C2)c1", "stereo": "stereo unspecified", "effect": 25.76}
{"compound": "CS(=O)(=O)N1CC(c2ncn3ccccc23)C1", "effect": -21.43}

Repeated from the top, 4 entries:

{"compound": "Cc1nn(C)c(C)c1C1CCCN1CC(=O)Nc1ccncc1", "stereo": "stereo unspecified", "effect": -7.042}
{"compound": "Cc1ccc2cc(CN(C)Cc3ccncn3)c(=O)[nH]c2c1", "effect": 8.508}
{"compound": "CCn1cc(CN(C)Cc2cnn(-c3ccc(F)cc3)c2)cn1", "effect": -34.1}
{"compound": "CC(NC(=O)c1cccs1)C(=O)NCc1ccccc1CN1CCCC1", "stereo": "stereo unspecified", "effect": -8.519}